PubChem BioAssay AID1224826, NIAID – 2016

Screen: 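Genes that change LPS-induced Tnf promoter activity in mouse macrophages when knocked down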 (primary screen)
Cells: RAW264.7 G9 macrophages from mouse bearing reporters for p65 (GFP) and the Tnf promoter (mCherry)
Knock-down reagent: siRNA pool against mouse genes, 100 nM
Duration: 16 h of LPS stimulation, after 2 days of siRNA transfection
Treatment: bacterial lipopolysaccharide (Salmonella minnesota R595), 10 ng/ml
Measurement: 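Imaged Tnf reporter mCherry in nuclei, minus background, normalised per plate to the median and expressed as robust z-scores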
Scale: Tnf reporter robust z-score: higher = stronger Tnf promoter reporter signal after LPS
Hit rule: 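a well counts as active at a score of -1.3 or below (Tlr4 knock-down control median) or above 3 (raised signal); controls and wells holding fewer than 50 cells are excluded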
Calls: active = Tnf reporter clearly lowered or raised; inactive = no clear change in Tnf reporter
The whole screen tested about 17,000 reagents; shown is an unselected part. Of all reagents, about 1,110 (6.6%) got an active call. 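Active means lowered or raised reporter signal; replicate intensities are raw and not normalised per plate.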 The numbers tell different reagents against one gene apart. Further read-outs or replicates are left out here.

| target | pool no. | Tnf reporter robust z-score | fewer than 50 cells in well | outcome |
| --- | --- | --- | --- | --- |
| Rbm11 (GeneID 224344) | 1 | 0.26 | enough cells in well | inactive |
| Socs2 (GeneID 216233) | 1 | 0.12 | enough cells in well | inactive |
| Ttll3 (GeneID 101100) | 1 | 3.58 | enough cells in well | active |
| Atoh1 (GeneID 11921) | 1 | 0.42 | enough cells in well | inactive |
| Dedd2 (GeneID 67379) | 1 | 1.13 | enough cells in well | inactive |
| Nts (GeneID 67405) | 1 | 0.65 | enough cells in well | inactive |
| Cby2 (GeneID 67926) | 1 | -1.17 | enough cells in well | inactive |
| Slain2 (GeneID 75991) | 1 | -1.18 | enough cells in well | inactive |
| Oxld1 (GeneID 66431) | 1 | – | fewer than 50 cells per well; well left out of calls | inactive |
| Chga (GeneID 12652) | 1 | -0.72 | enough cells in well | inactive |
| Bpgm (GeneID 12183) | 1 | 0.43 | enough cells in well | inactive |
| Ca9 (GeneID 230099) | 1 | -1.45 | enough cells in well | active |
| Paqr9 (GeneID 75552) | 1 | -0.43 | enough cells in well | inactive |
| Serpinb1a (GeneID 66222) | 1 | 0.87 | enough cells in well | inactive |
| Krt9 (GeneID 107656) | 1 | 0.67 | enough cells in well | inactive |
| Fam204a (GeneID 76539) | 1 | 2.17 | enough cells in well | inactive |
| Prl3a1 (GeneID 67000) | 1 | 0.42 | enough cells in well | inactive |
| Ppt1 (GeneID 19063) | 1 | 0.67 | enough cells in well | inactive |
| Ppt1 (GeneID 19063) | 2 | – | fewer than 50 cells per well; well left out of calls | inactive |
| Unc119b (GeneID 106840) | 1 | 0.48 | enough cells in well | inactive |
| Shoc2 (GeneID 56392) | 1 | – | fewer than 50 cells per well; well left out of calls | inactive |
| Rdm1 (GeneID 66599) | 1 | 0.66 | enough cells in well | inactive |
| Dnai1 (GeneID 68922) | 1 | -0.71 | enough cells in well | inactive |
| Hcst (GeneID 23900) | 1 | -1.37 | enough cells in well | active |
| Fahd1 (GeneID 68636) | 1 | 1.84 | enough cells in well | inactive |
| Kat8 (GeneID 67773) | 1 | -0.28 | enough cells in well | inactive |
| Crkl (GeneID 12929) | 1 | -1.22 | enough cells in well | inactive |
| Unc45a (GeneID 101869) | 1 | 0.48 | enough cells in well | inactive |
| Stam (GeneID 20844) | 1 | 0.07 | enough cells in well | inactive |
| Defb1 (GeneID 13214) | 1 | -1.7 | enough cells in well | active |
| Reep6 (GeneID 70335) | 1 | 0.85 | enough cells in well | inactive |
| Tgfbrap1 (GeneID 73122) | 1 | 0.05 | enough cells in well | inactive |
| Or2m12 (GeneID 258443) | 1 | 2.16 | enough cells in well | inactive |
| Apof (GeneID 103161) | 1 | 0.81 | enough cells in well | inactive |
| Itm2a (GeneID 16431) | 1 | 0.92 | enough cells in well | inactive |
| Arl5c (GeneID 217151) | 1 | 1.01 | enough cells in well | inactive |
| Or52n20 (GeneID 259052) | 1 | -1.09 | enough cells in well | inactive |
| Mkx (GeneID 210719) | 1 | – | fewer than 50 cells per well; well left out of calls | inactive |
| Skp2 (GeneID 27401) | 1 | -0.01 | enough cells in well | inactive |
| Ttc22 (GeneID 230576) | 1 | – | fewer than 50 cells per well; well left out of calls | inactive |
| Rbm28 (GeneID 68272) | 1 | 0.82 | enough cells in well | inactive |
| Ceacam1 (GeneID 26365) | 1 | 0.57 | enough cells in well | inactive |
| Susd2 (GeneID 71733) | 1 | -0.74 | enough cells in well | inactive |
| Upp2 (GeneID 76654) | 1 | -0.13 | enough cells in well | inactive |
| Ptprk (GeneID 19272) | 1 | -0.14 | enough cells in well | inactive |
| Rbm45 (GeneID 241490) | 1 | 0.88 | enough cells in well | inactive |
| Mga (GeneID 29808) | 1 | -0.51 | enough cells in well | inactive |
| Atp6v1g2 (GeneID 66237) | 1 | -0.16 | enough cells in well | inactive |
| Tcf7l2 (GeneID 21416) | 1 | -0.38 | enough cells in well | inactive |
| Spata31d1a (GeneID 72219) | 1 | – | fewer than 50 cells per well; well left out of calls | inactive |
| Hebp2 (GeneID 56016) | 1 | 0.62 | enough cells in well | inactive |
| Fbxw4 (GeneID 30838) | 1 | 0.5 | enough cells in well | inactive |
| Alg1 (GeneID 208211) | 1 | -1.04 | enough cells in well | inactive |
| Amer1 (GeneID 72345) | 1 | 0.82 | enough cells in well | inactive |
| Trex1 (GeneID 22040) | 1 | 0.36 | enough cells in well | inactive |
| Krt35 (GeneID 53617) | 1 | 0.49 | enough cells in well | inactive |
| St3gal6 (GeneID 54613) | 1 | 3.18 | enough cells in well | active |
| Or9m1 (GeneID 258641) | 1 | 0.2 | enough cells in well | inactive |
| Oplah (GeneID 75475) | 1 | -0.49 | enough cells in well | inactive |
| Prdx3 (GeneID 11757) | 1 | 0.08 | enough cells in well | inactive |
| Vps52 (GeneID 224705) | 1 | 0.61 | enough cells in well | inactive |
| Rbm5 (GeneID 83486) | 1 | -0.46 | enough cells in well | inactive |
| Tas2r107 (GeneID 387342) | 1 | -0.02 | enough cells in well | inactive |
| Zfp42 (GeneID 22702) | 1 | -0.61 | enough cells in well | inactive |
| Ring1 (GeneID 19763) | 1 | 0.78 | enough cells in well | inactive |
| Scart2 (GeneID 244234) | 1 | -1.25 | enough cells in well | inactive |
| Zfp180 (GeneID 210135) | 1 | -0.34 | enough cells in well | inactive |
| Cabp2 (GeneID 29866) | 1 | -0.82 | enough cells in well | inactive |
| Cbln3 (GeneID 56410) | 1 | -1.53 | enough cells in well | active |
| Gnat2 (GeneID 14686) | 1 | -0.49 | enough cells in well | inactive |
| Sun1 (GeneID 77053) | 1 | -0.91 | enough cells in well | inactive |
| Drd2 (GeneID 13489) | 1 | 1.25 | enough cells in well | inactive |
| Pappa (GeneID 18491) | 1 | -0.06 | enough cells in well | inactive |
| Or1o2 (GeneID 258505) | 1 | 0.16 | enough cells in well | inactive |
| Or2y8 (GeneID 211472) | 1 | 0.21 | enough cells in well | inactive |

Reformatted: 13 of the entries above.
Rbm28 (GeneID 68272): Tnf reporter robust z-score = 0.82; fewer than 50 cells in well = enough cells in well; outcome = inactive
Ceacam1 (GeneID 26365): Tnf reporter robust z-score = 0.57; fewer than 50 cells in well = enough cells in well; outcome = inactive
Susd2 (GeneID 71733): Tnf reporter robust z-score = -0.74; fewer than 50 cells in well = enough cells in well; outcome = inactive
Upp2 (GeneID 76654): Tnf reporter robust z-score = -0.13; fewer than 50 cells in well = enough cells in well; outcome = inactive
Ptprk (GeneID 19272): Tnf reporter robust z-score = -0.14; fewer than 50 cells in well = enough cells in well; outcome = inactive
Rbm45 (GeneID 241490): Tnf reporter robust z-score = 0.88; fewer than 50 cells in well = enough cells in well; outcome = inactive
Mga (GeneID 29808): Tnf reporter robust z-score = -0.51; fewer than 50 cells in well = enough cells in well; outcome = inactive
Atp6v1g2 (GeneID 66237): Tnf reporter robust z-score = -0.16; fewer than 50 cells in well = enough cells in well; outcome = inactive
Tcf7l2 (GeneID 21416): Tnf reporter robust z-score = -0.38; fewer than 50 cells in well = enough cells in well; outcome = inactive
Spata31d1a (GeneID 72219): fewer than 50 cells in well = fewer than 50 cells per well; well left out of calls; outcome = inactive
Hebp2 (GeneID 56016): Tnf reporter robust z-score = 0.62; fewer than 50 cells in well = enough cells in well; outcome = inactive
Fbxw4 (GeneID 30838): Tnf reporter robust z-score = 0.5; fewer than 50 cells in well = enough cells in well; outcome = inactive
Alg1 (GeneID 208211): Tnf reporter robust z-score = -1.04; fewer than 50 cells in well = enough cells in well; outcome = inactive
